Source: the supplement of paper PMC12823440, “Inhibitors supercharge kinase turnover through native proteolytic circuits” (Nature, 2025)
Where a name gives a salt, the structure may show the parent alone. The list shows a part of the results. Hit calls seldom repeat between salt and free forms of one compound.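 Kinases, fused to nanoluciferase, were expressed in K562 cells; luminescence was measured every 4 h from 2 to 18 h as percent of control (DMSO = 100%, positive control = 0%). A time point is decreased if signal falls significantly (2 sigma). Hits were called by the authors by a rule that is not shown; the count of time points alone does not decide it.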

Amino acid sequences for entries named in this document (tags omitted). A change or cut given only in a name is not applied to a line headed by its entry.
UniProt Q92630: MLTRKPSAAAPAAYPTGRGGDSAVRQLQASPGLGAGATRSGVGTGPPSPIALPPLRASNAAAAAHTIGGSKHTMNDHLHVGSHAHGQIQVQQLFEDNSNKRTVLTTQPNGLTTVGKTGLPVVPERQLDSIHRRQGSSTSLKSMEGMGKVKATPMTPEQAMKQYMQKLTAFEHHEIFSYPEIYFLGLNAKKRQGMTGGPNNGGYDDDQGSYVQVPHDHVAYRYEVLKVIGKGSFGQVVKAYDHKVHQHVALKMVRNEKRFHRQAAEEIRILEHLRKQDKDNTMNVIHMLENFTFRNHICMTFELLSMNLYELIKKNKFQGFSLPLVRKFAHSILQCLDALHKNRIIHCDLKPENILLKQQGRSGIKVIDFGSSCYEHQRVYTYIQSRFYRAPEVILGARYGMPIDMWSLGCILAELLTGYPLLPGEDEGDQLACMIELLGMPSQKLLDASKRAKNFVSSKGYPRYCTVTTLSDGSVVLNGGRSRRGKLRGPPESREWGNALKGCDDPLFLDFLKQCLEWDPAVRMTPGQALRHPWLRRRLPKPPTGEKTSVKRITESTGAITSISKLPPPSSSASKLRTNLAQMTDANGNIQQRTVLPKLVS

Molecular target: DYRK2 (UniProt Q92630)
Assay: kinase-Nluc reporter destabilization hit call (1 = scored as downregulated) (binary); higher = compound decreases kinase abundance
Conditions: 2.5 µM; K562; 2-18 h

kinase-Nluc reporter destabilization hit call, inactive:
CCc1cc2c(cc1-c1cnn(CC(=O)N(C)C)c1)C(C)(C)c1[nH]c3cc(C#N)ccc3c1C2=O 0
Cc1cnc(Nc2ccc(OCCN3CCCC3)cc2)nc1Nc1cccc(S(=O)(=O)NC(C)(C)C)c1 [Fedratinib] 0
Cc1cc(Nc2cc(N3CCN(C)CC3)nc(/C=C/c3ccccc3)n2)n[nH]1 [ENMD-2076 (Tartrate)] 0
Cc1cc(Nc2cc(N3CCN(C)CC3)nc(/C=C/c3ccccc3)n2)n[nH]1 0

Same assay, conditions: 10 µM; K562; 2-18 h

kinase-Nluc reporter destabilization hit call, inactive:
C=CC(=O)N1CCC([C@@H]2CCNc3c(C(N)=O)c(-c4ccc(Oc5ccccc5)cc4)nn32)CC1 [Zanubrutinib] 0
COc1cc(N2CCN(C)CC2)ccc1Nc1nccc(-c2cn(C)c3cnccc23)n1 0
Fc1ccc(-c2nc(-c3ccc4ccccc4c3F)[nH]c2-c2ccncc2)cc1 0
C=CC(=O)N(C)CCOc1c(N)ncnc1-c1cc(F)cc(NC(=O)c2ccc(C3CC3)cc2F)c1C [Remibrutinib] 0
NCCNc1ncc(C(N)=O)c(Nc2cccc(C(F)(F)F)c2)n1 [Syk Inhibitor II] 0
C[C@@H]1O[C@@H](Oc2c(-c3ccc(O)c(O)c3)oc3cc(O)cc(O)c3c2=O)[C@H](O)[C@H](O)[C@H]1O [Quercitrin] 0
CCCOc1ccc(C=C2SC(=O)NC2=O)cc1 0
Cc1cc2c(F)c(Oc3ncnn4cc(OC[C@@H](C)O)c(C)c34)ccc2[nH]1 [Brivanib] 0
CC(C)[C@@](C)(O)[C@@H]1CN(c2nc(-c3[nH]nc4ncccc34)c(F)cc2Cl)CCN1 0
CCCCCCCCCCCCc1ccc(S(=O)(=O)Nc2nncs2)cc1 0
CC#CC(=O)N1CCC[C@H]1c1nc(-c2ccc(C(=O)Nc3ccccn3)cc2)c2c(N)nccn12 [Acalabrutinib] 0
CC(C)N(CCC(=O)c1ccc2ccccc2c1)Cc1ccccc1 0
C=CC(=O)N1C[C@@H](Nc2ncnc3[nH]ccc23)CC[C@H]1C [(2R,5S)-Ritlecitinib] 0
COc1ccc(-c2cc(C(=O)NN=C(C)c3ccc(OC)c(OC)c3)[nH]n2)cc1 0
Cn1cc(/C=C2\C(=O)Nc3cccnc32)c2ccccc21 0
Cc1ccc2c(=O)c3cccc(CC(=O)O)c3oc2c1C [Vadimezan] 0
C[C@@H]1CN(C(=O)Nc2ccc(-c3nc(N4CCOCC4)c4cnn(CCCCCCC(=O)NO)c4n3)cc2)CCO1 [HDACs/mTOR Inhibitor 1] 0
C[C@H]1CN(C2COC2)CCN1c1ccc(Nc2cc(-c3ccnc(N4CCn5c(cc6c5CC(C)(C)C6)C4=O)c3CO)cn(C)c2=O)nc1 [Fenebrutinib] 0
Nc1ncccc1-c1nc2ccc(-c3ccccc3)nc2n1-c1ccc(C2(N)CCC2)cc1 [Miransertib] 0
C=CC(=O)Nc1cc2c(Nc3ccc(F)c(Cl)c3)ncnc2cc1OCCCN1CCOCC1 [Canertinib] 0
O=c1ncn2nc(Sc3ccc(F)cc3F)ccc2c1-c1c(Cl)cccc1Cl [Neflamapimod] 0
CCCCCC1CC1CC1CC1CCCCCCCC(=O)OC (stereo unspecified) 0
CC(C)(C)n1nc(-c2ccc(Cl)cc2)c2c(N)ncnc21 0
NC1(C(=O)N[C@@H](CCO)c2ccc(Cl)cc2)CCN(c2nc[nH]c3nccc2-3)CC1 [Capivasertib] 0
Cc1ccc(O)cc1Nc1ccnc(Nc2cccc(C(N)=O)c2)n1 [Lck inhibitor 2] 0

Quoted from the results shown, 3 compounds:
kinase-Nluc reporter destabilization hit call, inactive:
C=CC(=O)N1C[C@@H](Nc2ncnc3[nH]ccc23)CC[C@H]1C [(2R,5S)-Ritlecitinib] 0
COc1ccc(-c2cc(C(=O)NN=C(C)c3ccc(OC)c(OC)c3)[nH]n2)cc1 0
Cn1cc(/C=C2\C(=O)Nc3cccnc32)c2ccccc21 0

Following part:

kinase-Nluc reporter destabilization hit call, active:
CCn1c(=O)c(-c2cc(NC(=O)Nc3ccccc3)c(F)cc2Br)cc2cnc(NC)cc21 [Ripretinib] 1

Molecular target: EGFR (UniProt P00533)
Assay: as above
Conditions: 2.5 µM; K562; 2-18 h

kinase-Nluc reporter destabilization hit call, inactive:
C=CC(=O)N1CCC[C@@H](n2nc(-c3ccc(Oc4ccccc4)cc3)c3c(N)ncnc32)C1 [Ibrutinib] 0
Cc1cn(-c2cc(NC(=O)c3ccc(C)c(Nc4nccc(-c5cccnc5)n4)c3)cc(C(F)(F)F)c2)cn1 [Nilotinib] 0
Cc1cc(C)n2c1C=C1C=CC(CCC(=O)NCCN3CCN(C/C=C/C(=O)N4CCCC(n5nc(-c6ccc(Oc7ccccc7)cc6)c6c(N)ncnc65)C4)CC3)=[N+]1[B-]2(F)F (stereo unspecified) 0
Cc1cnc(Nc2ccc(OCCN3CCCC3)cc2)nc1Nc1cccc(S(=O)(=O)NC(C)(C)C)c1 [Fedratinib (hydrochloride hydrate)] 0
O=C(Nc1cccc(Nc2nccc(Nc3cccc(C(F)(F)F)c3)n2)c1)C1CC1 [Aurora kinase inhibitor-3] 0
COc1ccc(-c2cc3nccn3c(Nc3ncccc3C(N)=O)n2)cc1OC [BAY 61-3606 (dihydrochloride)] 0
Nc1nc(Nc2ccc(S(N)(=O)=O)cc2)nn1C(=O)c1c(F)cccc1F 0
COc1cc(N2CCC(N3CCN(C)CC3)CC2)ccc1Nc1ncc(Cl)c(Nc2ccccc2S(=O)(=O)C(C)C)n1 0
COc1cc(Nc2c(C#N)cnc3cc(OCCCN4CCN(C)CC4)c(OC)cc23)c(Cl)cc1Cl [Bosutinib] 0
CCc1cc2c(cc1-c1cnn(CC(=O)N(C)C)c1)C(C)(C)c1[nH]c3cc(C#N)ccc3c1C2=O 0
Cc1cnc(Nc2ccc(OCCN3CCCC3)cc2)nc1Nc1cccc(S(=O)(=O)NC(C)(C)C)c1 [Fedratinib] 0
